PubChem BioAssay AID743121 – NCATS | 2013

Assay: 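Knock-downs that sensitise breast cancer cells to camptothecin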 (primary screen)
Cells: MDA-MB-231 cells, a human breast cancer line
Reagent: single siRNA against human genes, 20 nM siRNA (0.8 pmol per well)
Timing: 120 h (drug added 48 h after transfection, read 72 h later)
Conditions: camptothecin 20 nM (about EC30) for 72 h; vehicle 0.1% DMSO in parallel plates
Measured: 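CellTiter-Glo ATP signal, scaled to control siRNA as percent viability; sensitisation given as log2 of untreated divided by camptothecin-treated viability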
Reading the numbers: log2 vehicle/camptothecin viability: higher = stronger sensitisation to camptothecin; viability with camptothecin and viability without drug: higher = more viable cells
Call rule: 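Each gene scored by redundant siRNA activity (RSA) over its individual siRNA ratios; a gene is called active at p < 0.001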
In all, the deposit lists about 26,000 reagents; shown is a part drawn at random. In the full data, 167 (0.63%) got an active call. 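Calls are per gene from RSA p-values that are not deposited; an individual active-marked siRNA can sensitise only weakly.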 Reagent sequences are not shown.

| gene | PubChem SID | log2 vehicle/camptothecin viability | viability with camptothecin (% of control) | viability without drug (% of control) | activity call |
| --- | --- | --- | --- | --- | --- |
| PGRMC1 | SID164413806 | 0.0117 | 95.5 | 96.3 | inactive |
| PGRMC1 | SID164413807 | 0.144 | 29.7 | 32.8 | inactive |
| PGRMC1 | SID164413809 | 0.276 | 78.2 | 94.7 | inactive |
| PRDX6 | SID164404738 | 1.2 | 38.1 | 87.6 | inactive |
| PRDX6 | SID164404739 | -0.0594 | 110 | 106 | inactive |
| PRDX6 | SID164404741 | -0.32 | 56.6 | 45.3 | inactive |
| PRDX6 | SID164404742 | 0.187 | 69.6 | 79.3 | inactive |
| PPRC1 | SID164445494 | -0.478 | 56.5 | 40.6 | inactive |
| PPRC1 | SID164445495 | -0.296 | 93 | 75.8 | inactive |
| PPRC1 | SID164445498 | 0.0415 | 47.7 | 49.1 | inactive |
| PPRC1 | SID164445499 | -0.393 | 73.9 | 56.3 | inactive |
| CD38 | SID164357274 | -0.39 | 83.8 | 63.9 | inactive |
| CD38 | SID164357277 | 0.0615 | 60.1 | 62.8 | inactive |
| CD38 | SID164357280 | -0.494 | 78.5 | 55.8 | inactive |

An excerpt from above, limited to “viability without drug (% of control)”:
PRDX6 [SID164404738] = 87.6
PRDX6 [SID164404739] = 106
PRDX6 [SID164404741] = 45.3

Additional records follow.
| gene | PubChem SID | log2 vehicle/camptothecin viability | viability with camptothecin (% of control) | viability without drug (% of control) | activity call |
| --- | --- | --- | --- | --- | --- |
| GNB4 | SID164498638 | -0.562 | 42.3 | 28.7 | inactive |
| GNB4 | SID164498639 | 0.0416 | 83.3 | 85.7 | inactive |
| GNB4 | SID164498641 | 0.0507 | 47.5 | 49.2 | inactive |
| GNB4 | SID164498646 | -0.173 | 109 | 96.7 | inactive |
| CCL16 | SID164387339 | -0.364 | 64.5 | 50.1 | inactive |
| CCL16 | SID164387341 | -0.0914 | 69.5 | 65.3 | inactive |
| CCL16 | SID164387342 | 0.284 | 62.5 | 76.1 | inactive |
| HPGD | SID164369916 | 0.251 | 75.2 | 89.5 | inactive |
| HPGD | SID164369917 | -0.496 | 69.4 | 49.2 | inactive |
| HPGD | SID164369918 | -0.313 | 19.1 | 15.3 | inactive |
| HPGD | SID164369919 | 2.18 | 9.88 | 44.7 | inactive |
| RNF151 | SID164573953 | -0.425 | 85.3 | 63.6 | inactive |
| RNF151 | SID164573954 | 0.0423 | 37.5 | 38.6 | inactive |
| RNF151 | SID164573956 | 0.0575 | 69.1 | 71.9 | inactive |
| RNF151 | SID164573957 | 0.0509 | 92 | 95.3 | inactive |
